Results of single-concentration screens

Each number is a percent effect as filed. The record does not define 0% and 100%; most values in the screen are far below 50% and negative numbers occur (in some assays of this library far below -100). This is an unselected part of the compounds tested. Two or more numbers in one place are separate tests of the same structure; such repeats can differ widely.

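Whole-cell growth test on Mycobacterium tuberculosis, read after 4 days in a medium based on cholesterol and the lipid DPPC; the read-out is not stated. Tested at 50 µM. Direction is inferred from retests: higher values go with more growth inhibition. Size under these conditions: about 69,000 compounds, about 370 of them at 50% or above in at least one test.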

Compound: Cc1nc2ccc(-n3ncnc3[C@@H]3CCCN3S(C)(=O)=O)cc2s1
effect: -6.174

Compound: O=C(CCc1cccnc1)N1CCC2(CCN(CC3CCCC3)C2)C1.O=C(O)C(F)(F)F.O=C(O)C(F)(F)F (stereo not drawn)
effect: -10.88

Compound: CCSCc1csc(-c2ccc(S(C)(=O)=O)cc2)n1
effect: 18.4

Compound: CCOCC1CN(CC2CC2)Cc2cnn(C)c21 (stereo not drawn)
effect: -8.835

Compound: O=C(O)C(F)(F)F.[H][C@@]12CN(Cc3cccs3)C[C@]1([H])C(=O)N(c1ccsc1)C2
effect: 43.55

Compound: COCCCNC(=O)c1cc(OC)c2ccoc2c1
effect: -25.54

Compound: CN(Cc1cc2c(cc1OC(F)F)OCO2)Cc1nccn1C
effect: 8.887

Compound: O=C(O)COc1ccc(CN2CCCC(CCc3ccccc3)C2)cc1 (stereo not drawn)
effect: -26.65

Compound: O=C(C1CNCCN1C(=O)CCOc1ccccc1)N1CCOCC1 (stereo not drawn)
effect: -2.329

Compound: Cc1cc(=O)n(CC(=O)NC(C)C)c(Nc2ccc(F)c(C)c2)n1
effect: -35.35

Compound: CC(C)C(=O)Nc1ncn(Cc2cccc(Br)c2)n1
effect: -0.4617

Compound: Cc1cnc2n(c1=O)CC(C(=O)Nc1cccc3cccnc13)CS2 (stereo not drawn)
effect: 4.071

Compound: CC(C)(O)c1cn(C2CCN(C(=O)CCC(F)(F)F)CC2)nn1
effect: -0.6748

Compound: N#Cc1cnn(CCN2CCOC(CNc3cccnn3)C2)c1 (stereo not drawn)
effect: -7.357

Compound: Cc1cc(C)c(CNC(=O)N2CCCC2c2ccccn2)c(=O)[nH]1 (stereo not drawn)
effect: 12.55

Compound: Cc1nc(NC2CCCC2)cc(C2CCN2C(=O)c2cccnc2)n1 (stereo not drawn)
effect: -10.57

Compound: O=C(O)C(F)(F)F.[H][C@@]12OCCN(Cc3ccco3)[C@@]1([H])CC[C@H]2OCC1CCCC1
effect: -20.59

Compound: CCc1cnc(C)nc1N1CCN(C(N)=O)CC1
effect: 1.233

Compound: Cn1ccc2c(-c3cc(N)nc(N4CCOCC4)n3)ccnc21
effect: -11.77

Compound: [H][C@]12CC[C@]([H])(CN(C(=O)c3cnccn3)C1)N(C(=O)CCc1ccsc1)C2
effect: -6.882 & -2.54

Compound: CC1CN(C(=O)NCCn2ccnc2)CCO1 (stereo not drawn)
effect: -0.4609

Compound: [H][C@]12CCN(C(=O)Cc3cccs3)C[C@@]1([H])OCCN(S(C)(=O)=O)C2
effect: 1.148

Compound: Cc1nc(O)cc(C2CCN(C(=O)c3[nH]nc4c3CC(C)CC4)CC2)n1 (stereo not drawn)
effect: -11.81

Compound: CC(C)[C@H](NC(=O)N1CCN(c2ccc(Cl)cc2)CC1)C(=O)NC1CC1
effect: -25.05

Compound: CN1CCc2nnc(C3CCCN3S(=O)(=O)c3ccc(F)cc3)n2CC1 (stereo not drawn)
effect: -5.542 & 6.854

Compound: CCN1CCN(C2CCN(Cc3noc(C)n3)CC2)C1=O
effect: -0.07074

Compound: Cc1cccc(CN2CCC3(CCC(C(=O)N(C)C)O3)CC2)n1 (stereo not drawn)
effect: -7.84

Compound: CC(C)n1ccnc1C1CCN(Cc2ccc(Cl)c(F)c2)CC1
effect: -9.463

Compound: O=C(O)C(F)(F)F.O=C(O)C(F)(F)F.[H][C@@]12OCCN(Cc3cc(C)on3)[C@@]1([H])CC[C@H]2OCc1csc(C)n1
effect: -6.944

Compound: O=C(O)C(F)(F)F.O=C(O)C(F)(F)F.[H][C@@]12CCCO[C@]1([H])[C@@H](OCc1cccc(C)n1)CN2c1nnc(C)s1
effect: -4.885

Compound: O=C(O)C(F)(F)F.O=C(c1ccco1)N1CCCC2(CN(Cc3ccsc3)CCO2)C1 (stereo not drawn)
effect: 7.34

Compound: Cn1nc(C(=O)NCc2ccccc2C(F)(F)F)c2c1CCS(=O)(=O)C2
effect: -8.836

Compound: COc1ccc(CN(Cc2cncn2C)CC2CCCO2)cc1.O=C(O)CC(O)(CC(=O)O)C(=O)O (stereo not drawn)
effect: 0.02868

Compound: Cc1cnn(CCNc2cnc3ccccc3n2)c1
effect: 0.2053

Compound: OCCN1CCN(CCOCC(F)(F)F)CC1
effect: -20.33

Compound: COc1cccc(N2CCN(C(=O)C(C)Oc3ccccc3)CC2=O)c1 (stereo not drawn)
effect: 12.85

Compound: [H][C@@]12CN(c3ncnc4[nH]ccc34)C[C@]1(C(=O)O)CN(CC1CC1)C2=O
effect: 10.87

Compound: Cc1noc(NC(=O)c2ccc(OC(F)(F)F)cc2)n1
effect: 68.31

Compound: O=C(Cn1cc(C(=O)O)ccc1=O)Nc1ccc(F)cc1Cl
effect: -25.41

Compound: COCCN(C)C[C@@H]1CN(C(=O)c2ccc3c(c2)OCO3)C[C@@H]1CO
effect: -29.45

Compound: CO[C@@H]1CN(C)S(=O)(=O)[C@@]12CCN(Cc1ccccc1)C2
effect: 17.85

Compound: Cc1noc(C)c1CN1CCCC2(C1)CN(c1nncs1)CCO2 (stereo not drawn)
effect: -10.45

Compound: [H][C@]12CCC[C@@]1(COCc1ccccn1)CN(C(=O)c1cscn1)C2
effect: -7.741

Compound: CCc1nc(N2CCN(CCOC)CC2)c2cnn(C)c2n1
effect: -13.26

Compound: CC(CNC(=O)c1c[nH]nn1)Oc1ccc(Cl)cc1 (stereo not drawn)
effect: 5.234

Compound: N#Cc1nccnc1NC1CCN(c2ccccc2OC(F)F)C1 (stereo not drawn)
effect: 19.89

Compound: CN(Cc1ccc(F)cc1)[C@@H]1CN(S(C)(=O)=O)C[C@H]1O
effect: -20.17 & 4.554

Compound: CC(C(=O)N1CCc2sccc2C1)N1CCC(S(N)(=O)=O)CC1 (stereo not drawn)
effect: 29.38

2 of the entries, repeated:

Compound,effect
CCSCc1csc(-c2ccc(S(C)(=O)=O)cc2)n1,18.4
CCc1nc(N2CCN(CCOC)CC2)c2cnn(C)c2n1,-13.26

Measurements from “University of Dundee, Small-Polar-MMV Screening Library” (2021), ChEMBL document CHEMBL3988442.